Data as given in PubChem BioAssay AID1224828 (NIAID, 2016)

Screen: 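Find genes required for NF-kappaB p65 moving into the nucleus after LPS in mouse macrophages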 (primary screen)
Cells: mouse RAW264.7 G9 macrophage reporter cells (GFP-p65, Tnf promoter-mCherry)
Reagent: siRNA pool against mouse genes, 100 nM
Duration: 2 days siRNA transfection, then 40 min LPS before fixation
Conditions: LPS (Salmonella minnesota R595) at 10 ng/ml
Read-out: 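Microscopy ratio of nuclear to perinuclear-ring GFP-p65 signal, scaled to the plate median; gene score is the average of two replicate robust z-scores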
Reading the numbers: p65 translocation robust z-score: higher = more nuclear NF-kappaB p65 after LPS than the plate median; nuclear/cytoplasmic p65 ratio: higher = more nuclear NF-kappaB p65
Call rule: 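Active if robust z is above 3.3 (negative regulators) or below -1.56, the Tlr4 control median (positive regulators); activity score 50 or more; control wells not called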
Calls: active = hit (p65 shift raised or lowered); inactive = no clear change
The deposit covers about 17,000 reagents; this is a random part of them. 762 of all reagents (4.5%) count as active. 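Active calls include both raised and lowered p65 entry, mostly lowered; wells with fewer than 50 cells lack a z-score.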 Raw values vary from plate to plate and are shown uncorrected. A reagent listed more than once was tested more than once; the source does not tell the runs apart.

Il15ra — p65 translocation robust z-score: 0.37; nuclear/cytoplasmic p65 ratio, rep 1: 1.42; nuclear/cytoplasmic p65 ratio, rep 2: 1.48; low cell count flag: enough cells to score; call: inactive
Esx1 — p65 translocation robust z-score: -0.75; nuclear/cytoplasmic p65 ratio, rep 1: 1.46; nuclear/cytoplasmic p65 ratio, rep 2: 1.31; low cell count flag: enough cells to score; call: inactive
D930030O05Rik — p65 translocation robust z-score: 0.54; nuclear/cytoplasmic p65 ratio, rep 1: 1.7; nuclear/cytoplasmic p65 ratio, rep 2: 1.58; low cell count flag: enough cells to score; call: inactive
Taar8a — p65 translocation robust z-score: -0.37; nuclear/cytoplasmic p65 ratio, rep 1: 1.46; nuclear/cytoplasmic p65 ratio, rep 2: 1.52; low cell count flag: enough cells to score; call: inactive
Nars2 — p65 translocation robust z-score: 1.9; nuclear/cytoplasmic p65 ratio, rep 1: 1.91; nuclear/cytoplasmic p65 ratio, rep 2: 1.96; low cell count flag: enough cells to score; call: inactive
Nme1 — nuclear/cytoplasmic p65 ratio, rep 1: 1.64; nuclear/cytoplasmic p65 ratio, rep 2: 1.23; low cell count flag: fewer than 50 cells per well; well left out of scoring; call: inactive
Mycn — p65 translocation robust z-score: 0.28; nuclear/cytoplasmic p65 ratio, rep 1: 1.54; nuclear/cytoplasmic p65 ratio, rep 2: 1.4; low cell count flag: enough cells to score; call: inactive
E130114P18Rik — p65 translocation robust z-score: 1.58; nuclear/cytoplasmic p65 ratio, rep 1: 1.68; nuclear/cytoplasmic p65 ratio, rep 2: 1.56; low cell count flag: enough cells to score; call: inactive
Cypt1 — p65 translocation robust z-score: 0.93; nuclear/cytoplasmic p65 ratio, rep 1: 1.33; nuclear/cytoplasmic p65 ratio, rep 2: 1.42; low cell count flag: enough cells to score; call: inactive
Dctn1 — p65 translocation robust z-score: -0.76; nuclear/cytoplasmic p65 ratio, rep 1: 1.4; nuclear/cytoplasmic p65 ratio, rep 2: 1.24; low cell count flag: enough cells to score; call: inactive
Taco1 — nuclear/cytoplasmic p65 ratio, rep 1: 1.53; nuclear/cytoplasmic p65 ratio, rep 2: 1.45; low cell count flag: fewer than 50 cells per well; well left out of scoring; call: inactive
Clec4a2 — p65 translocation robust z-score: -0.26; nuclear/cytoplasmic p65 ratio, rep 1: 1.58; nuclear/cytoplasmic p65 ratio, rep 2: 1.71; low cell count flag: enough cells to score; call: inactive

Targets above whose gene name begins with D or d (2):
D930030O05Rik — p65 translocation robust z-score: 0.54; nuclear/cytoplasmic p65 ratio, rep 1: 1.7; nuclear/cytoplasmic p65 ratio, rep 2: 1.58; low cell count flag: enough cells to score; call: inactive
Dctn1 — p65 translocation robust z-score: -0.76; nuclear/cytoplasmic p65 ratio, rep 1: 1.4; nuclear/cytoplasmic p65 ratio, rep 2: 1.24; low cell count flag: enough cells to score; call: inactive

More reagents follow.
Or2a7 — p65 translocation robust z-score: -0.85; nuclear/cytoplasmic p65 ratio, rep 1: 1.45; nuclear/cytoplasmic p65 ratio, rep 2: 1.4; low cell count flag: enough cells to score; call: inactive
Vstm2b — nuclear/cytoplasmic p65 ratio, rep 1: 1.31; nuclear/cytoplasmic p65 ratio, rep 2: 1.18; low cell count flag: fewer than 50 cells per well; well left out of scoring; call: inactive
Ormdl1 — p65 translocation robust z-score: -0.24; nuclear/cytoplasmic p65 ratio, rep 1: 1.51; nuclear/cytoplasmic p65 ratio, rep 2: 1.79; low cell count flag: enough cells to score; call: inactive
Ssbp4 — p65 translocation robust z-score: -1.13; nuclear/cytoplasmic p65 ratio, rep 1: 1.37; nuclear/cytoplasmic p65 ratio, rep 2: 1.1; low cell count flag: enough cells to score; call: inactive
Fubp1 — p65 translocation robust z-score: -0.2; nuclear/cytoplasmic p65 ratio, rep 1: 1.68; nuclear/cytoplasmic p65 ratio, rep 2: 1.33; low cell count flag: enough cells to score; call: inactive
Pcyt1a — p65 translocation robust z-score: -0.45; nuclear/cytoplasmic p65 ratio, rep 1: 1.23; nuclear/cytoplasmic p65 ratio, rep 2: 1.19; low cell count flag: enough cells to score; call: inactive
Grk2 — p65 translocation robust z-score: 0.76; nuclear/cytoplasmic p65 ratio, rep 1: 1.87; nuclear/cytoplasmic p65 ratio, rep 2: 1.43; low cell count flag: enough cells to score; call: inactive
Grk2 — p65 translocation robust z-score: -0.33; nuclear/cytoplasmic p65 ratio, rep 1: 1.47; nuclear/cytoplasmic p65 ratio, rep 2: 1.52; low cell count flag: enough cells to score; call: inactive
Zfp369 — p65 translocation robust z-score: 0.54; nuclear/cytoplasmic p65 ratio, rep 1: 1.44; nuclear/cytoplasmic p65 ratio, rep 2: 1.35; low cell count flag: enough cells to score; call: inactive
